Experimental data taken from US20240034785A1, “RXR-ALPHA BINDERS AND RXR-ALPHA/PLK1 MODULATORS” (NUCMITO PHARMACEUTICALS CO. LTD., priority 2020, published 2024).
Results are given in words; binding and its absence hold for the method and conditions named. Binding seen in cells or lysates may run through a third protein. Binding can be weak; no strength is given.

The chains behind the UniProt entries cited, without tags or fusion partners. Where a name states a change or a piece, a line headed by the entry shows the natural chain unless it says otherwise.
UniProt P19793: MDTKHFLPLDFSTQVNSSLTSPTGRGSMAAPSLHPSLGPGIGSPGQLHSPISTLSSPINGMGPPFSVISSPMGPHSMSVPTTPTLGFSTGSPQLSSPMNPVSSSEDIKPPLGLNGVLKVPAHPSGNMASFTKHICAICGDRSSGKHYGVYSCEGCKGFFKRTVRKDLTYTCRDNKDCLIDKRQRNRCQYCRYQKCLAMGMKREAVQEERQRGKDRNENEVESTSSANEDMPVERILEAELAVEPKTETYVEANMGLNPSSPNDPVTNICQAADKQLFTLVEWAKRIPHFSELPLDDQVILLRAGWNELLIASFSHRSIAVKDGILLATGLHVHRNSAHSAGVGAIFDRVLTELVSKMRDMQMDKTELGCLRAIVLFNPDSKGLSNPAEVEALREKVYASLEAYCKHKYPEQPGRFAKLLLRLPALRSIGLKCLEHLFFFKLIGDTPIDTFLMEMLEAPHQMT

Target: T1, polo-like kinase 1 (PLK1), full-length (human, UniProt P53350 1-603)
T1 construct: Endogenous, FLAG-tagged and His-tagged forms are merged here; also called FLAG-PLK1; Flag-PLK1
Test: CoIP of FLAG-PLK1 with Myc-RXRα mutants in HeLa cells (FIG. 27)

| Substance | binding |
| --- | --- |
| RXRα mutated at Ser96 (from UniProt P19793) (receptor) | binds |
| RXRα mutated at Ser260 (from UniProt P19793) (receptor) | binds |
